The source of these data is PMC3983220.

This data set has as its target T1, D146A ΔhPus1p (Homo sapiens) (UniProt Q9Y606).
T1 sequence (looked up): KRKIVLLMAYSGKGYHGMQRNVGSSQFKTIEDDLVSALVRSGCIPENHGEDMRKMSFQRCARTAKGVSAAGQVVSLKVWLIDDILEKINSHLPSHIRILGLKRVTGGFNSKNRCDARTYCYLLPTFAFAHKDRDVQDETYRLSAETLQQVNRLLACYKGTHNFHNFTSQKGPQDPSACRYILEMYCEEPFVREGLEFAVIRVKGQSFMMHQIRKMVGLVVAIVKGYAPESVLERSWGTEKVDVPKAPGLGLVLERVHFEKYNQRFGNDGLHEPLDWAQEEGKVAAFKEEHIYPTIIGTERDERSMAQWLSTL
The data set can be described thus: fluorescence anisotropy. The following applies: n=1; 5-fluorouridine at U206-equivalent position (index in oligo not given); 10 mM HEPES pH 7.0, 150 mM NaCl, 5 mM MgCl2, 5 mM TCEP, 20°C; RNA fixed at 1 µM; recombinant protein; residues 83-394; protein details: N-terminal 9xHis, TEV-cleaved; label: 5'-fluorescein; letters put together from the description.

The exact form of at least one protein or probe is not confirmed. Protein sequences can lack the tags named with them.

By Kd is commonly meant the constant that tells how readily two partners part at equilibrium. “GCCCCAAUGGGGCCUCCACCUCCUUCAAGUAAGGCUCCCAGGUCCCCACCUGUGGG [H7 SRA FL]”: the Kd stood at 2200 nM.
